Screen size: about 31,000 sequences; about 1,400 (4.5%) were called active.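 Rule for the calls: active = median seed-adjusted z-score above 1 or below -1; inactive = the rest.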 The list shows a part of the results.
Assay: Novel Modifiers of Survival Motor Neuron (SMN) Protein: Gene Identification via Genome-wide siRNA Screen;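 note: luminescence tracks full-length SMN protein made from the SMN2 reporter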
Conditions: HEK293T SMN2-luciferase reporter, siRNA knockdown, 72 h; actives lie on both sides
Summary of the method: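 Luciferase signal, proportional to full-length SMN made from an SMN2 cDNA reporter in stable HEK293T cells, was read 72 h after siRNA reverse transfection. Values were expressed as MAD scores after non-targeting-control normalization and log10 conversion; seed analysis flagged off-targets.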

Sequence	median seed-adjusted z-score
GGAUGAUGAGAUGAACAUUTT against PDE1B	inactive: -0.384
GCAUCUUUCAUGAUAUGGATT against SMPDL3A	inactive: 0.49
GGAUCACACGCAUCCAUGATT against ZBTB20	inactive: -0.521
AGCUAGUUUCUGUCUCGAATT against LOXL3	inactive: 0.517
CAGACUCCUGUUUACCUUUTT against CLP1	inactive: -0.372
GAUCAACUGUUGUCGGUGATT against LIN7B	inactive: 0.236
GCACCUACAACUGCGAGUATT against ART1	inactive: 0.0033
GGUGAAAGGUCAGAUCUAATT against ZNF436	inactive: 0.00767
CAAGUACAAUACUAACUGUTT against ZNF280C	inactive: 0.336
AGAUGUUCACGAAACCUGUTT against TRIM55	inactive: -0.483
GAACCUACUUGUACAAUGATT against TNFRSF1A	inactive: 0.00772
GGAUUUUGUUUUGAACGCATT against CDK2AP1	inactive: 0.168
CCUUCAAAGUUUAGAACAATT against B3GNT5	inactive: -0.452
GGAGGAGCAAUGGUACUUATT against ZNF512	inactive: -0.675
GGACCUUAAAGACGAGAAATT against DDX10	inactive: -0.968
CCGCUGAGGUGACAACAAATT against XRCC5	active: -1.11
CCUAUGACAUGUUUCCAGATT against MAP4K2	inactive: -0.439
GAGCAAGGCAUGGAACUAATT against ATP6V0A4	inactive: -0.141
GGACUCGCAUUUAUUCACATT against ICK	inactive: 0.638
AAAUUAGAGUGAACAAGAATT against NFIC	inactive: 0.72
GAAUCAAUGGACAUGAACATT against CYP2C9	inactive: 0.246
GAUUUUGACUAUCUUCUUATT against CD200R1	inactive: 0.0679
GAAGCAUAUCUAUGACUAUTT against ARPM1	inactive: -0.0251

Sequence	median seed-adjusted z-score
AGAUGUUCUGAGGCUGAUATT against OASL	active: 1.02
CUAUAACUGUGAGCCGGAATT against MST101	inactive: -0.293
GGAUAAGCUUUAUGAGCGATT against PURB	inactive: 0
GCUCGACUGUGCAAUAACATT against SART3	inactive: 0
GAUGCUGGUUGGUUCGAUATT against MFSD4	active: -1.89
GCCUAAGAAAAUUCGAGUATT against SYNJ1	inactive: 0
CUAUCGUGGUGGAUAUGAATT against SYNCRIP	inactive: -0.192
GGGCAGUGGCUAUAGCAUATT against ACER1	inactive: 0.308
GAAUAUCGAAAGGAUGAAATT against CRY1	inactive: 0.0564
ACAGAAACGGUCCUCUUUATT against PROKR2	inactive: 0.328
GCAACGAUUUUAGAGGUUATT against ADAM10	inactive: 0.14
GGAUGUGGUAGUACAGAAATT against PSMD2	active: -1.44
CCACUGGGCUAAUUCUACATT against ALPPL2	inactive: 0.331
GACUUGCCCUUACUGCAAATT against RNF175	inactive: 0.127
AGGACGAGAUGUCCACGAATT against PKP3	inactive: 0.205
CAAGCAUGGUCUUUCUACUTT against TUBB2A	active: 1.03
CCAUGAACGGUUACCAGAATT against UBTF	inactive: 0.942
GCAAAUGGGAGGUUGGAAATT against ZIK1	inactive: -0.0627
GAGACUGACUGCGUACUUATT against PAPOLA	inactive: 0
GUGCACUAAUCAUACAAUATT against CD1B	inactive: -0.407
UGAAGAUCAUUAACCUGAATT against SCN2B	inactive: -0.65
CUAUCUUCGGUUGAACAAATT against DNAJC12	inactive: 0.248
AGCACUUCAUGACAGGCUATT against GLT6D1	inactive: 0.145

A few values from above.
In median seed-adjusted z-score, GAAUCAAUGGACAUGAACATT against CYP2C9 is listed with inactive: 0.246
In median seed-adjusted z-score, GACUUGCCCUUACUGCAAATT against RNF175 is listed with inactive: 0.127

The list goes on:

Sequence	median seed-adjusted z-score
GAUCGUCUGCUGAAUACAATT against NASP	inactive: 0.133
CCAUCAAUGCGGCUCAUGUTT against TUFM	active: 1.07
CAAAGGAGGUUUUCCGGAATT against TOP1MT	inactive: 0.159
CACCCUAGUUCCUCCGGUATT against CD99	inactive: 0
CCGAGGACGAAAACUUGUATT against NDUFB11	inactive: 0.014
CCCUAAUUCUGAUAUCGUATT against CLPX	inactive: -0.0436
GCUUUAGCCUGAAGUCAAATT against HKR1	inactive: -0.358
GAGCGAUAAUUGUGAGGAUTT against TF	inactive: 0.192
AAGUCAUUUUACAACGAAATT against SLC2A7	inactive: -0.0337
CUUCUGUACCCAUCAGUAATT against SARS	inactive: 0.377
GACCCGAGGUGUUUUCUGATT against C1RL	inactive: -0.148
CGGUUCCGCUGAGAUCAGATT against AATK	inactive: -0.621
CUCUCACCGUUUCCACAAATT against EHMT1	inactive: 0.00857
CAAAAACAGCGUACAUCUATT against HECTD2	inactive: 0.405
GACCCACUCUUGAAAGACATT against ZNF304	inactive: -0.44
GAGAAUUUGUGAAUCUUCATT against RNF138	inactive: 0.265
CAUUCAAGAUGACUGUUCUTT against HTR3D	inactive: 0.776
CCUCCGCACUGAGAGAGAATT against ZFPL1	inactive: -0.072
GCAGAUUAUUUGCAAGCGATT against ULK2	inactive: -0.0393
UCUCAGUUGUUAAAAGUAUTT against RHOF	inactive: 0.0711
GACGGACAUUUGAUAAACATT against SP3	inactive: -0.0943
CAACACCUCUUACGAUAAATT against ZNF638	inactive: 0.63
GUAGUACCCGUCUUCCAGATT against PIGH	inactive: -0.327
